Data as given in PubChem BioAssay AID1259259 (Sanger Institute, 2017).

Aim: 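Kinase silencing that lowers colorectal cancer cell viability alone or with drugs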 (primary screen)
System: SW1463 human colorectal cancer cells
Knock-down reagent: siRNA pool against human genes
Treatment: DMSO vehicle, or one anchor drug: BYL719 at 1 µM, cetuximab at 5 µg/ml, or trametinib at 10 nM
Read-out: 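Viability as fraction of control pool 2 (non-targeting), replicate mean; knock-down robust z-score without any drug; synergy score averaged for each anchor drug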
Scale: robust z-score, knock-down alone: higher = more viable cells after knock-down; viability, knock-down alone: higher = more viable cells; synergy score with BYL719 and synergy score with cetuximab and synergy score with trametinib: higher = stronger synergy (synthetic lethal) with drug
Call rule: 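a robust z-score under -3 for knock-down with no drug marks the gene as essential, meaning viability loss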
Meaning of the calls: active = essential: viability loss from knock-down alone; inactive = no change from knock-down alone
Shown is a random part of 794 deposited reagents. In the full data, 9 (1.1%) are marked active. 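Calls rest on knock-down alone, not drug synergy; viability values seem capped at 1.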 Reagent sequences are not shown. Not stated in the record: the amount of reagent, the time to read-out.

gene	robust z-score, knock-down alone	viability, knock-down alone (fraction of control)	synergy score with BYL719	synergy score with cetuximab	synergy score with trametinib	outcome
PCK2 (phosphoenolpyruvate carboxykinase 2, mitochondrial)	1.13	1	0.0495	0.171	0.0665	inactive
PIK3CG	-0.664	0.885	0.0311	-0.0236	0.0124	inactive
DLG3 (discs large MAGUK scaffold protein 3)	0.841	0.982	-0.0183	0.224	0.0648	inactive
CEP290 (centrosomal protein 290)	1.13	1	0	0.00947	-0.0326	inactive
STK35 (serine/threonine kinase 35)	-0.59	0.89	-0.0518	-0.0418	0.0356	inactive
TYK2 (tyrosine kinase 2)	-1.06	0.86	-0.079	0.0207	-0.0263	inactive
PSKH1 (protein serine kinase H1)	-0.192	0.915	0.048	-0.11	0.174	inactive
CHD4 (chromodomain helicase DNA binding protein 4)	-4.31	0.651	-0.0804	0.0774	0.156	active
CLK3 (CDC like kinase 3)	-0.412	0.901	-0.0679	0.121	0.0154	inactive
RPS6KA5 (ribosomal protein S6 kinase A5)	-0.386	0.903	0.0774	-0.0107	0.0794	inactive
GNAS (GNAS complex locus)	-2.15	0.789	-0.0692	0.162	-0.0483	inactive
PRKAR1B (protein kinase cAMP-dependent type I regulatory subunit beta)	0.0262	0.929	0.108	0.2	-0.00361	inactive
MYLK4 (myosin light chain kinase family member 4)	1.13	1	0.072	0.183	-0.0326	inactive
NR4A2 (nuclear receptor subfamily 4 group A member 2)	-0.0716	0.923	0.144	0.279	0.327	inactive
CDKN2C (cyclin dependent kinase inhibitor 2C)	-0.737	0.88	0.0328	0.1	-0.0168	inactive
DBF4 (DBF4-CDC7 kinase regulatory subunit)	0.11	0.935	-0.0653	0.112	-0.0395	inactive
KSR2 (kinase suppressor of ras 2)	-0.531	0.894	-0.0538	0.276	0.159	inactive
AK3 (adenylate kinase 3)	-0.287	0.909	-0.0424	0.167	0.0624	inactive
AURKC (aurora kinase C)	1.13	1	0.00797	-0.0272	-0.0326	inactive
NEK3 (NIMA related kinase 3)	-2.47	0.769	-0.171	-0.0573	-0.133	inactive
LRRK1 (leucine rich repeat kinase 1)	1.13	1	0.0547	0.07	0.171	inactive
RIPK3 (receptor interacting serine/threonine kinase 3)	0.0949	0.934	0.0535	-0.0221	0.151	inactive
PRKAA2 (protein kinase AMP-activated catalytic subunit alpha 2)	0.385	0.952	0.0247	0.0547	0.296	inactive
EIF2AK4 (eukaryotic translation initiation factor 2 alpha kinase 4)	-0.194	0.915	0.0264	0.0944	-0.115	inactive
MYO3A (myosin IIIA)	0.638	0.969	0.137	0.0593	0.215	inactive
PHKG2 (phosphorylase kinase catalytic subunit gamma 2)	0.407	0.954	-0.0462	-0.0157	-0.0773	inactive
EPHA6 (EPH receptor A6)	0.362	0.951	0.0364	0.246	0.161	inactive
HASPIN (histone H3 associated protein kinase)	-1.11	0.856	-0.00324	-0.0058	0.0605	inactive
NIM1K (NIM1 serine/threonine protein kinase)	0.717	0.974	-0.0263	0.0405	0.148	inactive
GK (glycerol kinase)	0.837	0.981	0.0438	0.207	0.054	inactive
MARK1 (microtubule affinity regulating kinase 1)	1.13	1	0.0911	0.155	-0.00907	inactive
ALPK1 (alpha kinase 1)	1.13	1	0.0189	-0.0272	0.0857	inactive
BMAL1 (basic helix-loop-helix ARNT like 1)	-0.36	0.905	0.0954	0.129	-0.0307	inactive
WNK1 (WNK lysine deficient protein kinase 1)	1.13	1	0.0102	-0.0272	-0.0326	inactive
PTEN (phosphatase and tensin homolog)	-2.32	0.779	-0.148	-0.0637	-0.218	inactive
BLK (BLK proto-oncogene, Src family tyrosine kinase)	0.942	0.988	0.0956	0.0969	0.0343	inactive
EPHB4 (EPH receptor B4)	-0.308	0.908	-0.0219	0.175	0.0813	inactive
WHR1 (winged helix repair factor 1)	0.125	0.936	0.11	-0.0604	-0.0881	inactive
EGFR (epidermal growth factor receptor)	-1.13	0.855	0.0096	0.00655	0.126	inactive
MPP2 (MAGUK p55 scaffold protein 2)	-0.139	0.919	0.171	0.243	0.281	inactive
PAK1 (p21 (RAC1) activated kinase 1)	-0.882	0.871	0.0863	0.184	0.271	inactive
NRBP1 (nuclear receptor binding protein 1)	-0.173	0.917	-0.00203	0.0507	-0.113	inactive
EPHB2 (EPH receptor B2)	-0.983	0.864	-0.0472	0.102	-0.017	inactive
PGK2 (phosphoglycerate kinase 2)	1.13	1	0	0.0644	-0.0326	inactive
STK32C (serine/threonine kinase 32C)	0.667	0.97	-0.0295	0.0299	0.00748	inactive
CSNK2A2 (casein kinase 2 alpha 2)	-0.621	0.888	-0.0183	0.15	0.00323	inactive
RUNX1 (RUNX family transcription factor 1)	0.222	0.942	-0.0581	0.0801	0.164	inactive
PBK (PDZ binding kinase)	1.13	1	0.0181	0.0658	0.108	inactive
ULK1 (unc-51 like autophagy activating kinase 1)	-0.361	0.904	-0.0777	0.00311	-0.125	inactive
N4BP2 (NEDD4 binding protein 2)	0.501	0.96	-0.0402	-0.01	-0.0715	inactive

6 of these entries, reformatted:
| gene | robust z-score, knock-down alone | viability, knock-down alone (fraction of control) | synergy score with BYL719 | synergy score with cetuximab | synergy score with trametinib | outcome |
| --- | --- | --- | --- | --- | --- | --- |
| CHD4 (chromodomain helicase DNA binding protein 4) | -4.31 | 0.651 | -0.0804 | 0.0774 | 0.156 | active |
| CLK3 (CDC like kinase 3) | -0.412 | 0.901 | -0.0679 | 0.121 | 0.0154 | inactive |
| RPS6KA5 (ribosomal protein S6 kinase A5) | -0.386 | 0.903 | 0.0774 | -0.0107 | 0.0794 | inactive |
| GNAS (GNAS complex locus) | -2.15 | 0.789 | -0.0692 | 0.162 | -0.0483 | inactive |
| PRKAR1B (protein kinase cAMP-dependent type I regulatory subunit beta) | 0.0262 | 0.929 | 0.108 | 0.2 | -0.00361 | inactive |
| MYLK4 (myosin light chain kinase family member 4) | 1.13 | 1 | 0.072 | 0.183 | -0.0326 | inactive |
